Two molecules from PMC9102673 can be followed below.

No constants are given. Whether binding was seen depends on the method and setting. Binding seen in cells or lysates may run through a third protein. These calls come from enrichment with a bait or labelling near it, and not all partners need be listed. Tags and fused reporters may be left off the sequences shown.

This test addresses T1, DDIT4–APEX2 fusion protein (rigid linker) (human) (UniProt Q9NX09).
T1 sequence: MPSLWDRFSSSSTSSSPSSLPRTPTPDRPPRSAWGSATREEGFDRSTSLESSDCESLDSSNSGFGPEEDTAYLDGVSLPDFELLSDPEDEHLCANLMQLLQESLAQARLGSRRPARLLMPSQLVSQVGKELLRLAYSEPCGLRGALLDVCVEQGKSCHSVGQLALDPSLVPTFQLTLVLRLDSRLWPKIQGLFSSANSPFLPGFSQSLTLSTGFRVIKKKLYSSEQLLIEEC
Briefly: proximity labelling; DDIT4–APEX2 (rigid linker) expressed in SK-N-SH cells; 1 mM biotin tyramide 45 min at 37 °C with or without 330 μM NaAsO2, 1 mM H2O2 for 1.5 min; biotinylated proteins captured on streptavidin magnetic particles and identified by LC-MS/MS; proteins labelled by APEX2 alone filtered out.

B1: DNA2 (protein, UniProt P51530 1-1060)
chain: MEQLNELELLMEKSFWEEAELPAELFQKKVVASFPRTVLSTGMDNRYLVLAVNTVQNKEGNCEKRLVITASQSLENKELCILRNDWCSVPVEPGDIIHLEGDCTSDTWIIDKDFGYLILYPDMLISGTSIASSIRCMRRAVLSETFRSSDPATRQMLIGTVLHEVFQKAINNSFAPEKLQELAFQTIQEIRHLKEMYRLNLSQDEIKQEVEDYLPSFCKWAGDFMHKNTSTDFPQMQLSLPSDNSKDNSTCNIEVVKPMDIEESIWSPRFGLKGKIDVTVGVKIHRGYKTKYKIMPLELKTGKESNSIEHRSQVVLYTLLSQERRADPEAGLLLYLKTGQMYPVPANHLDKRELLKLRNQMAFSLFHRISKSATRQKTQLASLPQIIEEEKTCKYCSQIGNCALYSRAVEQQMDCSSVPIVMLPKIEEETQHLKQTHLEYFSLWCLMLTLESQSKDNKKNHQNIWLMPASEMEKSGSCIGNLIRMEHVKIVCDGQYLHNFQCKHGAIPVTNLMAGDRVIVSGEERSLFALSRGYVKEINMTTVTCLLDRNLSVLPESTLFRLDQEEKNCDIDTPLGNLSKLMENTFVSKKLRDLIIDFREPQFISYLSSVLPHDAKDTVACILKGLNKPQRQAMKKVLLSKDYTLIVGMPGTGKTTTICTLVRILYACGFSVLLTSYTHSAVDNILLKLAKFKIGFLRLGQIQKVHPAIQQFTEQEICRSKSIKSLALLEELYNSQLIVATTCMGINHPIFSRKIFDFCIVDEASQISQPICLGPLFFSRRFVLVGDHQQLPPLVLNREARALGMSESLFKRLEQNKSAVVQLTVQYRMNSKIMSLSNKLTYEGKLECGSDKVANAVINLRHFKDVKLELEFYADYSDNPWLMGVFEPNNPVCFLNTDKVPAPEQVEKGGVSNVTEAKLIVFLTSIFVKAGCSPSDIGIIAPYRQQLKIINDLLARSIGMVEVNTVDKYQGRDKSIVLVSFVRSNKDGTVGELLKDWRRLNVAITRAKHKLILLGCVPSLNCYPPLEKLLNHLNSEKLIIDLPSREHESLCHILGDFQRE
In the case of B1, the binding entry is “binds”.

B2: TEX14 (protein, UniProt Q8IWB6 1-1497)
chain: MSRAVRLPVPCPVQLGTLRNDSLEAQLHEYVKQGNYVKVKKILKKGIYVDAVNSLGQTALFVAALLGLRKFVDVLVDYGSDPNHRCFDGSTPVHAAAFSGNQWILSKLLDAGGDLRLHDERGQNPKTWALTAGKERSTQIVEFMQRCASHMQAIIQGFSYDLLKKIDSPQRLVYSPSWCGGLVQGNPNGSPNRLLKAGVISAQNIYSFGFGKAMPWFQFYLTGATQMAYLGSLPVIGEKEVIQADDEPTFSFFSGPYMVMTNLVWNGSRVTVKELNLPTHPHCSRLRLADLLIAEQEHSSKLRHPYLLQLMAVCLSQDLEKTRLVYERITIGTLFSVLHERRSQFPVLHMEVIVHLLLQISDALRYLHFQGFIHRSLSSYAVHIISPGEARLTNLEYMLESEDRGVQRDLTRVPLPTQLYNWAAPEVILQKAATVKSDIYSFSMIMQEILTDDIPWKGLDGSVVKKAVVSGNYLEADVRLPKPYYDIVKSGIHVKQKDRTMNLQDIRYILKNDLKDFTGAQRTQPTESPRVQRYGLHPDVNVYLGLTSEHPRETPDMEIIELKEMGSQPHSPRVHSLFTEGTLDPQAPDPCLMARETQNQDAPCPAPFMAEEASSPSTGQPSLCSFEINEIYSGCLILEDDIEEPPGAASSLEADGPNQVDELKSMEEELDKMEREACCFGSEDESSSKAETEYSFDDWDWQNGSLSSLSLPESTREAKSNLNNMSTTEEYLISKCVLDLKIMQTIMHENDDRLRNIEQILDEVEMKQKEQEERMSLWATSREFTNAYKLPLAVGPPSLNYIPPVLQLSGGQKPDTSGNYPTLPRFPRMLPTLCDPGKQNTDEQFQCTQGAKDSLETSRIQNTSSQGRPRESTAQAKATQFNSALFTLSSHRQGPSASPSCHWDSTRMSVEPVSSEIYNAESRNKDDGKVHLKWKMEVKEMAKKAATGQLTVPPWHPQSSLTLESEAENEPDALLQPPIRSPENTDWQRVIEYHRENDEPRGNGKFDKTGNNDCDSDQHGRQPRLGSFTSIRHPSPRQKEQPEHSEAFQASSDTLVAVEKSYSHQSMQSTCSPESSEDITDEFLTPDGEYFYSSTAQENLALETSSPIEEDFEGIQGAFAQPQVSGEEKFQMRKILGKNAEILPRSQFQPVRSTEDEQEETSKESPKELKEKDISLTDIQDLSSISYEPDSSFKEASCKTPKINHAPTSVSTPLSPGSVSSAASQYKDCLESITFQVKTEFASCWNSQEFIQTLSDDFISVRERAKKLDSLLTSSETPPSRLTGLKRLSSFIGAGSPSLVKACDSSPPHATQRRSLPKVEAFSQHHIDELPPPSQELLDDIELLKQQQGSSTVLHENTASDGGGTANDQRHLEEQETDSKKEDSSMLLSKETEDLGEDTERAHSTLDEDLERWLQPPEESVELQDLPKGSERETNIKDQKVGEEKRKREDSITPERRKSEGVLGTSEEDELKSCFWKRLGWSESSRIIVLDQSDLSD
For the molecule B2, the binding entry is recorded as “binds”.
